Experimental data as given in PubChem BioAssay AID651640 (Broad Institute, 2012).
Out of some 350,000 compounds screened, about 6,000 (1.7%) were called active. The inconclusive results got no clear call from the source; some entries with a clear call stand among them for comparison. Cut-off read from the data, not from the text of the source: active = CPE inhibition above about 20% (passing the limit was not always enough); inconclusive = no clear call, values can overlap the other calls; tested in BHK-21 cells.

assay: protection of cells from dengue 2 killing – plate reader, single concentration, primary screen (AID 651640); conditions: DENV2-infected cells, cytopathic effect rescue, at 9.99 µM, stronger effect = higher value;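 note: 0% = median of neutral control wells and 100% = median of positive control wells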

Row | SMILES | CPE inhibition
1 | N#Cc1ccc(-c2ccc([C@H]3[C@@H](CO)N4CCCCN(S(=O)(=O)c5ccccc5)C[C@@H]34)cc2)cc1 | active: 45.7%
2 | COc1ccc(-c2ccc([C@@H]3[C@H](CO)N4CCCCN(C(=O)NC(C)C)C[C@@H]34)cc2)cc1 | active: 63.9%
3 | COc1ccc(C2(CNC(=O)c3cc([N+](=O)[O-])cc([N+](=O)[O-])c3)CCCC2)cc1OC | inconclusive: 34.5%
4 | C[C@@H]1CCCCO[C@@H](CN(C)C(=O)Cc2ccccc2)[C@H](C)CN([C@@H](C)CO)C(=O)c2cc(NC(=O)c3ccccc3)ccc2O1 | inactive: -0.194%
5 | CC(C)NC(=O)N1CC2(C1)[C@@H](c1ccccc1)[C@@H](CO)N2C(=O)C1CCCCC1 | inconclusive: 31.6%
6 | CCC(=O)Nc1ccc2c(c1)C(=O)N(C)[C@@H]1CC[C@@H](CC(=O)NCCN3CCCCC3)O[C@@H]1CO2 | inconclusive: 23.7%
7 | COc1ccccc1CC1(C)C(=O)Nc2ccc(S(=O)(=O)NC3CCCCC3)cc21 (stereo unspecified) | inconclusive: 31.4%
8 | CC(Oc1ccccc1F)c1nnc(SCC(=O)c2c(N)n(C3CC3)c(=O)[nH]c2=O)o1 (stereo unspecified) | inconclusive: 24.8%
9 | CNC[C@H]1OCCCC[C@@H](C)Oc2ccc(NS(=O)(=O)c3ccc(C)cc3)cc2C(=O)N([C@H](C)CO)C[C@@H]1C | active: 29.6%
10 | Cc1ncc[nH]1 | active: 57.4%
11 | C[C@H](CO)N1C[C@H](C)[C@H](CN(C)Cc2ccc(-c3ccccc3)cc2)Oc2ccc(NC(=O)CCCCCC(=O)Nc3ccccc3N)cc2C1=O | active: 32.2%
12 | Cc1noc(C)c1NC(=O)N(C)C[C@@H]1Oc2ccc(NC(=O)CCN3CCOCC3)cc2C(=O)N([C@H](C)CO)C[C@H]1C | inconclusive: 22.9%
13 | CC(NC(=O)C12CC3CC(CC(C3)C1)C2)C(=O)N/N=C/C1=C(N2CCOCC2)C(=C\c2ccccc2)/CC1 (stereo unspecified) | active: 133%
14 | Cc1cc(C)cc(OCC(=O)Nc2ccc3c(c2)OCCO3)c1 | inactive: 14.7%
15 | CC(C)(C)NC(=O)CN(C(=O)CCC(=O)Nc1nccs1)c1ccccc1F | inconclusive: 35.1%
16 | C[C@@H]1CN([C@H](C)CO)C(=O)c2cc(C3=CCCCC3)cnc2O[C@@H]1CN(C)C(=O)C1CCOCC1 | inactive: -5.73%
17 | C[C@@H]1CN([C@H](C)CO)C(=O)Cc2cc(NC(=O)Nc3ccc(F)cc3)ccc2O[C@@H]1CN(C)S(=O)(=O)c1ccccc1 | inactive: 19.4%
18 | O=C(NC1CCCC1)N[C@@H]1C=C[C@H](CC(=O)N2CCOCC2)O[C@@H]1CO | inactive: -2.36%
19 | C[C@H]1CN([C@@H](C)CO)C(=O)c2cc(C#CCN(C)C)cnc2O[C@@H]1CN(C)Cc1ccc(F)cc1 | inactive: 13.7%
20 | O=C1C=CC(=O)N1c1ccccc1N1C(=O)C=CC1=O | inactive: 1.76%
21 | O=C(NC(=S)Nc1ccc(Br)cc1F)C1CCCCC1 | inactive: -4%
22 | COc1cccc(C(=O)c2c(-c3ccccc3)ncc3cc(OC)c(OC)cc23)c1 | active: 26.9%
23 | COc1ccc2c(c1)c[n+](C)c1c3cc(OC)c(OC)cc3ccc21 | inconclusive: 52%
24 | Cc1cccc(S(=O)(=O)N2C[C@H](O)COC[C@@H]3O[C@H](CC(=O)NCc4ccncn4)CC[C@H]32)c1 | inactive: -13.2%

Row | SMILES | CPE inhibition
25 | CC(Cc1ccccc1)Nc1ncnc2c1ncn2C1OC(CO)C(O)C1O (stereo unspecified) | inconclusive: 24.9%
26 | C[C@@H]1CN([C@H](C)CO)C(=O)Cc2cc(NC(=O)CCC(F)(F)F)ccc2O[C@H]1CN(C)S(=O)(=O)c1cccs1 | inactive: 4.45%
27 | Cc1ccc(S(=O)(=O)NCC[C@H]2CC[C@@H](NC(=O)Nc3ccccc3F)[C@H](CO)O2)cc1 | active: 20.4%
28 | O=C(COC(=O)c1cc(=O)[nH]c(=O)[nH]1)Nc1cccc(S(=O)(=O)N2CCCCC2)c1 | inconclusive: 28.9%
29 | CO[C@H]1CN(C)C(=O)c2ccc(NC(C)=O)cc2OC[C@@H](C)N(C(=O)C2CCCCC2)C[C@H]1C | inactive: -2.79%
30 | COc1ccc2nc(SC(C)C(=O)NC3CCCC3)[nH]c2c1 (stereo unspecified) | active: 63.7%
31 | COc1ccc(CN(C)C[C@@H]2Oc3c(NC(=O)Nc4ccc(F)cc4)cccc3C(=O)N([C@@H](C)CO)C[C@@H]2C)cc1 | inconclusive: 38.7%
32 | C[C@H](CO)N1C[C@H](C)[C@@H](CN(C)Cc2cccc(O)c2)OCc2cnnn2CCCC1=O | inconclusive: 43.3%
33 | CN(C)CC(=O)N1[C@@H](C#N)[C@H](c2ccc(C#CC3CCCC3)cc2)[C@@H]1CO | active: 22.8%
34 | C/C(=N\NC(=O)c1nnn(-c2nonc2N)c1CN1CCC(C)CC1)c1cccc(Br)c1 | inconclusive: 28.4%
35 | CSc1ccc(OC2CCCCC2NS(=O)(=O)c2ccc(Cl)cc2)cc1 (stereo unspecified) | inactive: -1.53%
36 | COc1ccc(C(=O)C[n+]2cccc3cc(C)ccc32)cc1 | inconclusive: 28.9%
37 | CN(C)C(=O)C[C@H]1CC[C@@H]2[C@H](COc3ccc(NC(=O)C4CC4)cc3C(=O)N2C)O1 | inconclusive: 21.6%
38 | Nc1ncnc2c1ncn2[C@@H]1O[C@H](CNC(=O)[C@@H]2C[C@H](F)CN2)[C@@H](O)[C@H]1O | inactive: 13.3%
39 | COC(C[C@H](O)[C@H](C)[C@H](O)COCc1ccccc1)OC | inconclusive: 33.3%
40 | O=C(C[C@@H]1CC[C@@H]2[C@H](COC[C@H](O)CN2C(=O)c2ccccc2)O1)Nc1ccc(-c2ccccc2)cc1 | active: 44.3%
41 | O=C(Nc1ccc2ccccc2c1)C(c1ccc(C(F)(F)F)cc1)n1c(=O)c(-c2cc3ccccc3[nH]2)nc2ccccc21 (stereo unspecified) | inconclusive: 20.7%
42 | Cc1cccc(OCCCC(=O)Nc2ccc(S(=O)(=O)Nc3nccs3)cc2)c1C | inconclusive: 24%
43 | NC(=O)C1CCN(C(=O)Cc2ccc(-c3ccccc3)cc2)CC1 | inactive: 7.68%
44 | O=S1(=O)Cc2cc3ccccc3cc2C1 | inactive: 0.985%
45 | C/C=C/c1ccc([C@H]2[C@@H](CO)N(CC3CC3)C23CN(S(C)(=O)=O)C3)cc1 | active: 51.2%
46 | C/C=C/c1ccc2c(c1)O[C@@H](CN(C)C(=O)c1ccc3c(c1)OCO3)[C@H](C)CN([C@@H](C)CO)S2(=O)=O | inactive: 12.4%
47 | O=C(CCN1CCCCC1)NCC[C@H]1CC[C@H](NC(=O)Nc2ccc(F)cc2)[C@H](CO)O1 | inactive: 3.88%
48 | Cc1ccc(-c2nc(-c3cccnc3)sc2CC(=O)O)cc1 | inconclusive: 31.6%

A second format for part of the listing above:
Row,SMILES,CPE inhibition
33,CN(C)CC(=O)N1[C@@H](C#N)[C@H](c2ccc(C#CC3CCCC3)cc2)[C@@H]1CO,active: 22.8%
34,C/C(=N\NC(=O)c1nnn(-c2nonc2N)c1CN1CCC(C)CC1)c1cccc(Br)c1,inconclusive: 28.4%
45,C/C=C/c1ccc([C@H]2[C@@H](CO)N(CC3CC3)C23CN(S(C)(=O)=O)C3)cc1,active: 51.2%

Carrying on.

Row | SMILES | CPE inhibition
49 | CC(=O)Nc1ccc(C(=O)OCC(=O)N2CCCC2=O)cc1 | inconclusive: 46.6%
50 | COc1ccc2c3c([nH]c2c1)[C@@H](CO)N(C(=O)c1ccccc1)CC31CCN(C)CC1 | active: 31%
51 | COCCCNC(=O)c1cc(Nc2ccc(OC)cc2OC)nc2ccccc12 | inconclusive: 27.5%
52 | COC(=O)C1=C(C)NC(=O)/C1=C\c1cc(C)n(-c2ccccc2F)c1C | inactive: 4.9%
53 | CC(C)Oc1ccc(C(=O)NN2C(=O)NC3(CCCCC3)C2=O)cc1 | active: 67.6%
54 | Cc1ccc(S(=O)(=O)N[C@H](C(=O)N2CCC(C(=O)N[C@H](C(=O)O)c3ccccc3)CC2)C(C)C)cc1 | inconclusive: 54.1%
55 | CC(=O)N(C)C[C@H]1Oc2ncc(-c3ccc(C#N)cc3)cc2C(=O)N([C@@H](C)CO)C[C@@H]1C | inconclusive: 46.4%
56 | CC(=O)Nc1ccc(NC(=O)C(C)Sc2n[nH]c(-c3cccs3)n2)cc1 (stereo unspecified) | inactive: -5.36%
57 | O=C(C[C@H]1C=C[C@H](NS(=O)(=O)c2ccc(F)cc2)[C@H](CO)O1)NCc1ccc(Cl)c(Cl)c1 | inactive: -3.83%
58 | COCC#Cc1ccc2c(c1)O[C@H](CN(C)C(=O)C1CC1)[C@H](C)CN([C@@H](C)CO)S2(=O)=O | inactive: 1.8%
59 | COc1cccc(C(=O)Nc2cccc(-c3ccc4nncn4n3)c2)c1OC | inconclusive: 21.1%
60 | COc1ccc(S(=O)(=O)N(C)C[C@H]2Oc3ccc(NC(=O)C4CC4)cc3C(=O)N([C@@H](C)CO)C[C@@H]2C)cc1 | inconclusive: 34.8%
61 | CCCC(=O)Nc1ccc2c(c1)C(=O)N(C)C[C@H](OC)[C@@H](C)CN(S(=O)(=O)c1cn(C)cn1)[C@@H](C)CO2 | inactive: 0.211%
62 | CNC[C@H]1Oc2c(NS(=O)(=O)c3ccc(Cl)cc3)cccc2C(=O)N([C@@H](C)CO)C[C@@H]1C | active: 94%
63 | Cc1cc(C(=O)Nc2cccc3c2O[C@H](CN(C)C(=O)NC2CCCCC2)[C@@H](C)CN([C@H](C)CO)C3=O)n(C)n1 | active: 37.3%
64 | CCC(=O)Nc1ccc2c(c1)C(=O)N(C)C[C@H](OC)[C@H](C)CN(Cc1cccc(F)c1)[C@@H](C)CO2 | inactive: 11.2%
65 | O=C(c1ccc(N2CCC3(CC2)OCCO3)c([N+](=O)[O-])c1)N1CCOCC1 | inconclusive: 38.6%
66 | CCN(CC)S(=O)(=O)c1ccc(NC(=O)[C@@H](NC(=O)c2cc(OC)cc(OC)c2)C(C)C)cc1 | inactive: -3.02%
67 | CCCNC(=O)N1C[C@H](O)COC[C@@H]2O[C@@H](CC(=O)N[C@H]3CCN(Cc4ccccc4)C3)CC[C@H]21 | inactive: 0.799%
68 | O=C(NC1CCCCC1)C(c1ccnc2ccccc12)n1c(=O)c(-c2ccco2)nc2ccccc21 (stereo unspecified) | inconclusive: 67.7%
69 | O=C1[C@H](Cc2ccccc2)NCC=CC[C@H](c2ccc(Cl)cc2)N1Cc1ccccc1 | active: 24.8%
70 | C[C@H]1CN([C@@H](C)CO)C(=O)c2cccc(NS(=O)(=O)c3cccs3)c2O[C@@H]1CN(C)Cc1ccc(-c2ccccc2)cc1 | inconclusive: 23.9%
71 | O=C(NC[C@@H]1[C@@H](c2ccccc2)[C@@H](CO)N1CC1CCCC1)c1cccnc1 | active: 38.5%

Compounds listed so far that have a thiophene ring, fused or not:
Row | SMILES | CPE inhibition
26 | C[C@@H]1CN([C@H](C)CO)C(=O)Cc2cc(NC(=O)CCC(F)(F)F)ccc2O[C@H]1CN(C)S(=O)(=O)c1cccs1 | inactive: 4.45%
56 | CC(=O)Nc1ccc(NC(=O)C(C)Sc2n[nH]c(-c3cccs3)n2)cc1 (stereo unspecified) | inactive: -5.36%
70 | C[C@H]1CN([C@@H](C)CO)C(=O)c2cccc(NS(=O)(=O)c3cccs3)c2O[C@@H]1CN(C)Cc1ccc(-c2ccccc2)cc1 | inconclusive: 23.9%
